PMC6656771
Results are given in words; binding and its absence hold for the method and conditions named. Binding seen in cells or lysates may run through a third protein. Some results given as binding are weak or reduced against the parent protein; the word gives no strength. For some of these results: Sequences can lack the tags named with a protein.

Protein sequences, listed by entry. Tags and fused reporters are not part of them.
UniProt B1AY13: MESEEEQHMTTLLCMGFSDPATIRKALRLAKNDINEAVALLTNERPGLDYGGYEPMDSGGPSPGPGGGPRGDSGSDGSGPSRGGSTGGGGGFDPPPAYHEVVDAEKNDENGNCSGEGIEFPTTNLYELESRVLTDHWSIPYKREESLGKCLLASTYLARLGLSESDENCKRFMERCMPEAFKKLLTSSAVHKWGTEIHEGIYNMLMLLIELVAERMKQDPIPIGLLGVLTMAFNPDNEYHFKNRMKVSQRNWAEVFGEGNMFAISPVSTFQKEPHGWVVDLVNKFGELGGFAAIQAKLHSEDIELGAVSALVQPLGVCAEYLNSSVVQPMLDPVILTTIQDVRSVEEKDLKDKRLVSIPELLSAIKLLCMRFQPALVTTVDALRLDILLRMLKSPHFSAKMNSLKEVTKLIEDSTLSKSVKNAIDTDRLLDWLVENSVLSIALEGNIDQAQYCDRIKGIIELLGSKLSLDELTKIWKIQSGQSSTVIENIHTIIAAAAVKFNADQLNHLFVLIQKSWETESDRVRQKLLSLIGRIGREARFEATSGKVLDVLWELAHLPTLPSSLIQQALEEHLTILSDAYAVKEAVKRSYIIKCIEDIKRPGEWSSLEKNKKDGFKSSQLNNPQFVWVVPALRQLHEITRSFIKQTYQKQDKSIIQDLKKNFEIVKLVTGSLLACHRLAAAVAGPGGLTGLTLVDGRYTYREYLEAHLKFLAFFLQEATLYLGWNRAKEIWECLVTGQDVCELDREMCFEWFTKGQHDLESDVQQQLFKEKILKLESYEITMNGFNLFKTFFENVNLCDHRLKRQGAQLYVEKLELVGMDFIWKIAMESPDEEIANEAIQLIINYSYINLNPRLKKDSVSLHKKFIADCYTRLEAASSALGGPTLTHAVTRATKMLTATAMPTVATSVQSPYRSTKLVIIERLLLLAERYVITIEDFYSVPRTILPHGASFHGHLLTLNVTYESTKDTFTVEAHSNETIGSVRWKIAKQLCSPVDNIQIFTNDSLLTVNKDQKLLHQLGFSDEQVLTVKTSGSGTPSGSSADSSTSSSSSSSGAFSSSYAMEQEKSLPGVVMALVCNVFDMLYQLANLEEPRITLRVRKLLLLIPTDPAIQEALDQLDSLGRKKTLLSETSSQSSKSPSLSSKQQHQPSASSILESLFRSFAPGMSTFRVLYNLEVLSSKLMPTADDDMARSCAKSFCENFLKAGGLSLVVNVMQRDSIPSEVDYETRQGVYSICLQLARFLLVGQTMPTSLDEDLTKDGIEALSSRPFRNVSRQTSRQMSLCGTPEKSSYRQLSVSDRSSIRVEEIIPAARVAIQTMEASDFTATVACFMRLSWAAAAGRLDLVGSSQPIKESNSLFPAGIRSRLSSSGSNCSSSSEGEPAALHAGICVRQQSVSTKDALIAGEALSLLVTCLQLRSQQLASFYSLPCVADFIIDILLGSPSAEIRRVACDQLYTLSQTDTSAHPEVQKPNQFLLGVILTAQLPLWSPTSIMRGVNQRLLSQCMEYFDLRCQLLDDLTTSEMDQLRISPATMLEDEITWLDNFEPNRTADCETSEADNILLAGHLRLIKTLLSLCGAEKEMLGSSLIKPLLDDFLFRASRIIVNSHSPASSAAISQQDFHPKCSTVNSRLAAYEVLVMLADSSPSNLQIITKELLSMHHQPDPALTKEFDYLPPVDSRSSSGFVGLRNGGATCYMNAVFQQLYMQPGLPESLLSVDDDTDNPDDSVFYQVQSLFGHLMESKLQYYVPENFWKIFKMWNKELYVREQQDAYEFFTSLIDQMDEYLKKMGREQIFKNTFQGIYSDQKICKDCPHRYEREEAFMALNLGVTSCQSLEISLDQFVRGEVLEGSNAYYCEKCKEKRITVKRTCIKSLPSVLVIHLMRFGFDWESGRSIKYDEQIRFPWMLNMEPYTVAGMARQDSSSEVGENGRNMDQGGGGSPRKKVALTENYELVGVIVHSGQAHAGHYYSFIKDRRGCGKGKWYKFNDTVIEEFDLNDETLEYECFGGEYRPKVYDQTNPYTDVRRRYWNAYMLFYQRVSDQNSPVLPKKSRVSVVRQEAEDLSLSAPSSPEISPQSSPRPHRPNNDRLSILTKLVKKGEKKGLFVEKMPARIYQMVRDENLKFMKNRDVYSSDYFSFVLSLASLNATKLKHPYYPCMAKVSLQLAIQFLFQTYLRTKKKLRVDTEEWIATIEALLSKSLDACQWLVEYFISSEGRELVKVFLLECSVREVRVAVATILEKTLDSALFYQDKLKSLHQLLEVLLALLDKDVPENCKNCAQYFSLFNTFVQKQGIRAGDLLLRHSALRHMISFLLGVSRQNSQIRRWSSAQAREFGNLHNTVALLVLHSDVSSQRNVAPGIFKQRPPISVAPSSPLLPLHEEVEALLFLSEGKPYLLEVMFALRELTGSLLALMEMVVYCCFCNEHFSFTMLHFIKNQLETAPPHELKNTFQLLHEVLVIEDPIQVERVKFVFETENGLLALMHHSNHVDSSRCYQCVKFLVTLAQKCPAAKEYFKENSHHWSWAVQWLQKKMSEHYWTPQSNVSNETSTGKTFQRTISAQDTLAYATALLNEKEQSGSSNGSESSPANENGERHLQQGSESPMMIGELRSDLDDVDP
UniProt Q9NZ08: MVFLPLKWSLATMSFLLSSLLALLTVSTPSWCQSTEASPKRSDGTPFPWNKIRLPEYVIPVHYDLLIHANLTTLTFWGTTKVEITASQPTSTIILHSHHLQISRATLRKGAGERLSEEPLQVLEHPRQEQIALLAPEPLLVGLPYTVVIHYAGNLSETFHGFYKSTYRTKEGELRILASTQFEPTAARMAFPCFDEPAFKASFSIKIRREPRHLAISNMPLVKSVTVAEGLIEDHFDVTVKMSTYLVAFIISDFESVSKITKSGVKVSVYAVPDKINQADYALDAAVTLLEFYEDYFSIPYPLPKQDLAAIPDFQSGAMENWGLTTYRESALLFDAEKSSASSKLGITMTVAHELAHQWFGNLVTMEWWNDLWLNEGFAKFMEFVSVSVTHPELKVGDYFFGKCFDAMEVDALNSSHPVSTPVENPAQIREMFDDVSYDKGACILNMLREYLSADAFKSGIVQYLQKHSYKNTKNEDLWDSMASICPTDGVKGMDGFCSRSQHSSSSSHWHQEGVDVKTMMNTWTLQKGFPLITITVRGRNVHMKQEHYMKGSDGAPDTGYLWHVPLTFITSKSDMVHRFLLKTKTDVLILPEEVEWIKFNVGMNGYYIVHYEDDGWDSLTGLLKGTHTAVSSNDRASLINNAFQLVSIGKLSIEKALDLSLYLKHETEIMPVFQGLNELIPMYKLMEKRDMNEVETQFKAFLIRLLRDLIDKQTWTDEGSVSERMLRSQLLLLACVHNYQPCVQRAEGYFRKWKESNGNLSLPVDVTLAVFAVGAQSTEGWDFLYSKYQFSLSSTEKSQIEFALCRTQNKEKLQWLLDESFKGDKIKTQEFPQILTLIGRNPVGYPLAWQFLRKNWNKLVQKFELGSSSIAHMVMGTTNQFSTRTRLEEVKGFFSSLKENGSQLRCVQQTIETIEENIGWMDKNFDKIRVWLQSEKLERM

Tests used:
[1] = target: T1, endogenous USP47 (Ubiquitin-Specific Protease 47) (mouse (endogenous in MEFs)) (UniProt Q8BY87); assay: co-IP; MEFs transfected with ERAP1 and/or Flag-USP47; whole-cell extracts in Triton Buffer (50 mM Tris-HCl pH 7.5, 250 mM sodium chloride, 50 mM sodium fluoride, 1 mM EDTA pH 8, 0.1% Triton); antibody overnight at 4 °C, Protein G- or Protein A-agarose beads, five washes, immunoblot; for Flag-USP47 with βTrCP also increasing amounts of ERAP1, Leu-SH for 24 h, or shERAP1
T1 sequence: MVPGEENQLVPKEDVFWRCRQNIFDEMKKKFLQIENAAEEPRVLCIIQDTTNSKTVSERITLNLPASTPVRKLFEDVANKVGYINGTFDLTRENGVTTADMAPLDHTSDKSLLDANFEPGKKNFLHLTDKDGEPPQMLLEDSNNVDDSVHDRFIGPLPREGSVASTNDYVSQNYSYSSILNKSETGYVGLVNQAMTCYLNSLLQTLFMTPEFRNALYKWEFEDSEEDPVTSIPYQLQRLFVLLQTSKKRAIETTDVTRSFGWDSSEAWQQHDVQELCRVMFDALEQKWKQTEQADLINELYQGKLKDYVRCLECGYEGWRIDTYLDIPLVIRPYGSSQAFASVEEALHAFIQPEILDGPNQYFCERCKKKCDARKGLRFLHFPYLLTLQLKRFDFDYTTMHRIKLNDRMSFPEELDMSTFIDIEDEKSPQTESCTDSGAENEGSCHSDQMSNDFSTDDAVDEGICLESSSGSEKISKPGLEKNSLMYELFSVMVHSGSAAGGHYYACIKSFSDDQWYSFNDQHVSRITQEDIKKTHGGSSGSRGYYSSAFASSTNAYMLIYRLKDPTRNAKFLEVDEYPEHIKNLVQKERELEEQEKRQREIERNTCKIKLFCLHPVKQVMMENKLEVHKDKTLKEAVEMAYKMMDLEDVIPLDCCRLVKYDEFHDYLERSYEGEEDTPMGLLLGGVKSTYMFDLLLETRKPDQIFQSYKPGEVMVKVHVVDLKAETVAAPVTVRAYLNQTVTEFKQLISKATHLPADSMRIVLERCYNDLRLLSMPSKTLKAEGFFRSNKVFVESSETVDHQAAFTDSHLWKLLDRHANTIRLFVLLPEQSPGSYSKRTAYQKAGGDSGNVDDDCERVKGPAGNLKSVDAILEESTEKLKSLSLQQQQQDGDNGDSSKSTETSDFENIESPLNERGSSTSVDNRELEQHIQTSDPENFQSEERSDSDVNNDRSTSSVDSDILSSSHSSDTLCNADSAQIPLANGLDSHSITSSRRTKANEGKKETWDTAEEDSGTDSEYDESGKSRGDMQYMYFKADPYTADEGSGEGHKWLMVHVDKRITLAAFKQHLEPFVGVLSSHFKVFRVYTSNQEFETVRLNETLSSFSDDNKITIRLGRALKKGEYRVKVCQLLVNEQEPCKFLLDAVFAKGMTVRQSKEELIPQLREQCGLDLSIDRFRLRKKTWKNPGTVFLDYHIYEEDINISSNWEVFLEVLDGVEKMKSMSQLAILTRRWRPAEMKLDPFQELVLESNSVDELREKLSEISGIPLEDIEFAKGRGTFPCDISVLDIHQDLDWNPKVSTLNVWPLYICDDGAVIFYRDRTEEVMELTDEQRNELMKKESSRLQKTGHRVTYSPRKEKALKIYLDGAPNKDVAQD

[2] = target: T2, Flag-USP47 (Ubiquitin-Specific Protease 47) (UniProt Q96K76); assay: as above
T2 sequence: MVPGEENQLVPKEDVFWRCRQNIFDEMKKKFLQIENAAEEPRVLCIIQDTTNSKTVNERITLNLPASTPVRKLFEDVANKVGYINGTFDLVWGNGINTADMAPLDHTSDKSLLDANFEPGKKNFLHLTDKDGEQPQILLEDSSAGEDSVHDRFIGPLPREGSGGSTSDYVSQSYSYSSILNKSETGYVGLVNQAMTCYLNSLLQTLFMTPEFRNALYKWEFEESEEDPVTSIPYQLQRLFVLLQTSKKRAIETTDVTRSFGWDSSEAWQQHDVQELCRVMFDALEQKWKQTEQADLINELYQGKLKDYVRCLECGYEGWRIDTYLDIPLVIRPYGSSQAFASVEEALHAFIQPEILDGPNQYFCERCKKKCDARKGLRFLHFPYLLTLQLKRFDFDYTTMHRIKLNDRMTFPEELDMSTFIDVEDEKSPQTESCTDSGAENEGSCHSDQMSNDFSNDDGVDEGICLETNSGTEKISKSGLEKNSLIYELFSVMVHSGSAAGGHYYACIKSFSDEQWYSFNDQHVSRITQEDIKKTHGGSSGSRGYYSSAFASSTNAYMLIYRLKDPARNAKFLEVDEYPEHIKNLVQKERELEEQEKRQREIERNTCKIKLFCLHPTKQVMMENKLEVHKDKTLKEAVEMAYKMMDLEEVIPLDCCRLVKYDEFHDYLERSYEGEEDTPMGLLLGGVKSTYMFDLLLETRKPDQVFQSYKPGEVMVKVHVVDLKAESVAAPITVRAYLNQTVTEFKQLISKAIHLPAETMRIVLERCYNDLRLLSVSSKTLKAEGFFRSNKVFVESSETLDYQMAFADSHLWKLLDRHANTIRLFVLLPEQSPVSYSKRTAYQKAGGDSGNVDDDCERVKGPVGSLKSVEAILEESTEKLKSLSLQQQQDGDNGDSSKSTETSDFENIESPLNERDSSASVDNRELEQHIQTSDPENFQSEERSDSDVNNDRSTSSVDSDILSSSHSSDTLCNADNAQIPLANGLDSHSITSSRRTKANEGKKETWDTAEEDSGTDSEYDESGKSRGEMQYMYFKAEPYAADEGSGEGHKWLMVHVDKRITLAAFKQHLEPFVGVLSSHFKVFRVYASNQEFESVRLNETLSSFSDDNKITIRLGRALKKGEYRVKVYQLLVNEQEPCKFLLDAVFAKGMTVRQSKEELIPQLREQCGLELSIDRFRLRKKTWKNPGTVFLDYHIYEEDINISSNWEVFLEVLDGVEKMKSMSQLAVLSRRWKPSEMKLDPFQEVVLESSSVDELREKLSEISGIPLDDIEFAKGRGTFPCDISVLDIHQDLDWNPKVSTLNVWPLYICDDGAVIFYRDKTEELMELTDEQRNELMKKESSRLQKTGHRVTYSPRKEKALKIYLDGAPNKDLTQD

USP22 = target: T3, USP22 (UniProt Q5DU02); assay: co-IP; Supplementary Figs. 2b and 5a-c; cells, constructs and antibodies not told in the text shown; immunoprecipitation is the only interaction method in the methods
T3 sequence: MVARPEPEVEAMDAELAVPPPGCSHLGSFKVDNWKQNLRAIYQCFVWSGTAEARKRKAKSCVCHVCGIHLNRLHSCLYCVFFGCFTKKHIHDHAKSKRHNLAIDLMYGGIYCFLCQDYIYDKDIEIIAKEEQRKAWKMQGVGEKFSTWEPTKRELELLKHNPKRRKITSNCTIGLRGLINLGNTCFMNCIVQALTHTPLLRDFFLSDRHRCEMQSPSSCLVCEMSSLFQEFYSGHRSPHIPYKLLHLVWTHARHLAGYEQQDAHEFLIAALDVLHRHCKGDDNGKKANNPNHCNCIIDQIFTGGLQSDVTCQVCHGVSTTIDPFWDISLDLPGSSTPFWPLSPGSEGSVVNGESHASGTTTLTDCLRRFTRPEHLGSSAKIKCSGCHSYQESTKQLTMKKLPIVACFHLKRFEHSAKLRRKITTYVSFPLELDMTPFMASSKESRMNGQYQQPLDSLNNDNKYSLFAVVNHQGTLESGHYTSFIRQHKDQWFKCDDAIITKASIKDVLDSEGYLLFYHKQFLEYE

USP24 = USP24 (UniProt B1AY13); assay: as above

In the case of “endoplasmic reticulum aminopeptidase 1 (ERAP1) (from UniProt Q9NZ08 1-941) (enzyme)”, the binding [1] is reported as “binds”, the binding [2] is reported as “binds” and the binding (USP22) is reported as “no binding”. For the same substance, the binding (USP24) was “no binding”.
